The results in this text go back to publication PMC8664570.

For this test, the target named is PAR-6::mCherry (C. elegans | not stated). Nature of the test: light-induced coclustering (CeLINC), fluorescence microscopy; in live C. elegans; mCherry-tagged bait trapped by CRY2(olig)::VHH(mCherry) in clusters; coclustering of the GFP-tagged prey scored; endogenously tagged proteins.

These are yes or no findings as the source states them, for the method shown. A result given as binding can be weak or reduced; the word gives no strength. Sequences can lack the tags named with a protein.

B1: GFP::PKC-3 (protein, UniProt Q19266 1-597)
chain: MSSPTSLEEDGDIKLKTRFQGQVVVLYARPPLILDDFFALLKDACKQHKKQDITVKWIDEDGDPISIDSQMELDEAVRCLNSSQEAELNIHVFVGKPELPGLPCQGEDKTVYRRGARRWKKIYLYNGHRFQAKRLNRRIQCFICHDYIWGIGRQGFRCVDCRLCVHKKCHRHVRTHCGQALQGPNIIPMAPASGSLKGARSNTSSSTTRSGGGIDNGAFHEHEIESPGSTSHDASRAMNGNGSSKWAVSLNDFRLLTVIGRGSYAKVVQAEHVSTRQIYAIKIIKKEMFNEDEDIDWVQTEKSVFEAASNYPFLVGLHSCFQTESRLFFVIEFVPGGDLMFHMQQQRKLPEEHARFYSGEIILALHFLHSRGIIYRDLKLDNVLIDAEGHIKLTDYGMCKENIKDGDLTSTFCGTPNYIAPEILRGDEYGFSVDWWALGVLMFEMMAGRSPFDIVGMQNSEENTEDYLFQIILERQIRIPRSLSVRASGILKGFLNKDPTERLGCKLDINEGLRDMKEHQFFRGFIDWEALEQKAVAPPYHPAVESDRDLTHFDHQFTDELPQLSPDNPDVIARIDQSEFDGFEYVNPLQMSREDSV
As for B1, the binding entry was “binds”.
